PubChem BioAssay AID1259328 – Drosophila RNAi Screening Center – 2017

- Purpose: 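Metal-linked candidate genes that shift zinc chloride toxicity in S2R+ cells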
- System: Drosophila S2R+ cells
- Reagent: long dsRNA against Drosophila genes
- Time to read-out: 5 days (4 days knock-down, then 1 day metal)
- Challenge: zinc chloride added to 15 mM final for 1 day
- Detection: 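ATP luminescence per well as a viability signal, measured after 4 days of knock-down and 1 day of 15 mM zinc chloride, reported as mean z-score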
- Direction: ATP z-score, averaged: higher = more ATP, more viable cells under zinc
- Rule for the call: 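a gene counts as active if its set 1 mean z-score lies outside the range -1.5 to 1.5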
This is an unselected part of 95 reagents tested. 6 of them (6.3%) count as active. 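Only two distinct z-score sets exist; calls follow set 1, and set 2 holds one inactive gene scoring above 1.5.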 Reagents against one gene are numbered here. The record does not give: the amount of reagent.

The first 4 records, ahead of the listing:
no.	gene	reagent no.	ATP z-score, averaged, set 1	ATP z-score, averaged, set 2	activity call
1	Vha44	1	0.596	0.315	inactive
2	Vha44	2	-0.345	0.64	inactive
3	p38c	1	-0.305	-0.221	inactive
4	p38c	2	-0.452	-0.42	inactive

The list itself, from the first entry:
no.	gene	reagent no.	ATP z-score, averaged, set 1	ATP z-score, averaged, set 2	activity call
1	Vha44	1	0.596	0.315	inactive
2	Vha44	2	-0.345	0.64	inactive
3	p38c	1	-0.305	-0.221	inactive
4	p38c	2	-0.452	-0.42	inactive
5	VhaSFD	1	1.03	1.18	inactive
6	VhaSFD	2	0.313	0.757	inactive
7	VhaSFD	3	0.562	0.816	inactive
8	stw	1	-0.22	-0.125	inactive
9	stw	2	-0.373	-0.413	inactive
10	Atox1	1	-0.0763	-0.519	inactive
11	Zip102B	1	0.563	-0.129	inactive
12	Zip102B	2	-0.274	-0.215	inactive
13	Vha68-2	1	0.571	0.693	inactive
14	Vha68-2	2	0.85	0.915	inactive
15	Vha36-1	1	0.345	0.616	inactive
16	Vha36-1	2	-0.00754	0.458	inactive
17	iPLA2-VIA	1	0.0514	-0.0017	inactive
18	iPLA2-VIA	2	-0.256	-0.302	inactive
19	p38b	1	-0.688	-0.00997	inactive
20	CG42674	1	-0.219	0.119	inactive
21	CG42674	2	-0.541	-0.332	inactive
22	MFS10	1	-0.561	-0.442	inactive
23	MFS10	2	-0.326	-0.216	inactive
24	CG6126	1	-0.385	-0.179	inactive
25	CG6126	2	-0.509	-0.143	inactive
26	eEF1gamma	1	-0.638	-0.33	inactive
27	eEF1gamma	2	-0.248	-0.556	inactive
28	alphaCOP	1	2.35	2.19	active
29	alphaCOP	2	2.7	2.42	active
30	alphaCOP	3	2.52	2.58	active
31	Mvl	1	-0.308	0.136	inactive
32	Mvl	2	1.2	1.04	inactive
33	Pop2	1	1.09	1.16	inactive
34	Pop2	2	-0.00176	0.809	inactive
35	CHMP2B	1	0.166	0.583	inactive
36	CHMP2B	2	-0.327	-0.0995	inactive
37	sp3	1	-0.162	-0.0874	inactive
38	sp3	2	-0.0157	0.338	inactive
